Binding data for one substance are collected here from PMC8881269.

The chains behind the UniProt entries cited, without tags or fusion partners.
UniProt Q96RU2: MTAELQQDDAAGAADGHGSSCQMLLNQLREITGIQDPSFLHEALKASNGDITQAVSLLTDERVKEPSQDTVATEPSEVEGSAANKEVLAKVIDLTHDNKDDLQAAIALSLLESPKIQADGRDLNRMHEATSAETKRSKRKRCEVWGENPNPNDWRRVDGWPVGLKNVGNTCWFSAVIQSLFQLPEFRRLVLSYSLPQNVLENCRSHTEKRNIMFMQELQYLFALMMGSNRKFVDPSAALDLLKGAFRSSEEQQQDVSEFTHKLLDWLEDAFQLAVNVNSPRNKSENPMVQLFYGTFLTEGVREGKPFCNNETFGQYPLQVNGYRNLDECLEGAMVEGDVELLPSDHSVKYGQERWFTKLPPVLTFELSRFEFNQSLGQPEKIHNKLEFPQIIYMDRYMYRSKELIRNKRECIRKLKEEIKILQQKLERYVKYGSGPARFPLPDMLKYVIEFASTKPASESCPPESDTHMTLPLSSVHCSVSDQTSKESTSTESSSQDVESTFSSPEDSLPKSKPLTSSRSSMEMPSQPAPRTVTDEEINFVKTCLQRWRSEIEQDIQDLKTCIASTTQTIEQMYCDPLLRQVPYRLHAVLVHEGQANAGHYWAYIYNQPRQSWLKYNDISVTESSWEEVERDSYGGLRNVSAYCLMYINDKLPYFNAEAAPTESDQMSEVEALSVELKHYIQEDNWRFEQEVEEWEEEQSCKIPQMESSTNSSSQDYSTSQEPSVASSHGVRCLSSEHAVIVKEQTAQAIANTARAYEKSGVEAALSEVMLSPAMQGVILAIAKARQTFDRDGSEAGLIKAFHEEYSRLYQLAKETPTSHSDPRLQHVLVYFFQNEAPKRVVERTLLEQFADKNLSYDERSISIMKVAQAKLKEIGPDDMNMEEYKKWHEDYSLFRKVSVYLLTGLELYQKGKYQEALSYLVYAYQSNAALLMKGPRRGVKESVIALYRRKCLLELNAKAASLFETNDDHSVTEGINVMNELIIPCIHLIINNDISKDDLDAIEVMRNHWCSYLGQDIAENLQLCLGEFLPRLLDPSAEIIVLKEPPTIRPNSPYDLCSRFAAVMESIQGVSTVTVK
UniProt Q14980: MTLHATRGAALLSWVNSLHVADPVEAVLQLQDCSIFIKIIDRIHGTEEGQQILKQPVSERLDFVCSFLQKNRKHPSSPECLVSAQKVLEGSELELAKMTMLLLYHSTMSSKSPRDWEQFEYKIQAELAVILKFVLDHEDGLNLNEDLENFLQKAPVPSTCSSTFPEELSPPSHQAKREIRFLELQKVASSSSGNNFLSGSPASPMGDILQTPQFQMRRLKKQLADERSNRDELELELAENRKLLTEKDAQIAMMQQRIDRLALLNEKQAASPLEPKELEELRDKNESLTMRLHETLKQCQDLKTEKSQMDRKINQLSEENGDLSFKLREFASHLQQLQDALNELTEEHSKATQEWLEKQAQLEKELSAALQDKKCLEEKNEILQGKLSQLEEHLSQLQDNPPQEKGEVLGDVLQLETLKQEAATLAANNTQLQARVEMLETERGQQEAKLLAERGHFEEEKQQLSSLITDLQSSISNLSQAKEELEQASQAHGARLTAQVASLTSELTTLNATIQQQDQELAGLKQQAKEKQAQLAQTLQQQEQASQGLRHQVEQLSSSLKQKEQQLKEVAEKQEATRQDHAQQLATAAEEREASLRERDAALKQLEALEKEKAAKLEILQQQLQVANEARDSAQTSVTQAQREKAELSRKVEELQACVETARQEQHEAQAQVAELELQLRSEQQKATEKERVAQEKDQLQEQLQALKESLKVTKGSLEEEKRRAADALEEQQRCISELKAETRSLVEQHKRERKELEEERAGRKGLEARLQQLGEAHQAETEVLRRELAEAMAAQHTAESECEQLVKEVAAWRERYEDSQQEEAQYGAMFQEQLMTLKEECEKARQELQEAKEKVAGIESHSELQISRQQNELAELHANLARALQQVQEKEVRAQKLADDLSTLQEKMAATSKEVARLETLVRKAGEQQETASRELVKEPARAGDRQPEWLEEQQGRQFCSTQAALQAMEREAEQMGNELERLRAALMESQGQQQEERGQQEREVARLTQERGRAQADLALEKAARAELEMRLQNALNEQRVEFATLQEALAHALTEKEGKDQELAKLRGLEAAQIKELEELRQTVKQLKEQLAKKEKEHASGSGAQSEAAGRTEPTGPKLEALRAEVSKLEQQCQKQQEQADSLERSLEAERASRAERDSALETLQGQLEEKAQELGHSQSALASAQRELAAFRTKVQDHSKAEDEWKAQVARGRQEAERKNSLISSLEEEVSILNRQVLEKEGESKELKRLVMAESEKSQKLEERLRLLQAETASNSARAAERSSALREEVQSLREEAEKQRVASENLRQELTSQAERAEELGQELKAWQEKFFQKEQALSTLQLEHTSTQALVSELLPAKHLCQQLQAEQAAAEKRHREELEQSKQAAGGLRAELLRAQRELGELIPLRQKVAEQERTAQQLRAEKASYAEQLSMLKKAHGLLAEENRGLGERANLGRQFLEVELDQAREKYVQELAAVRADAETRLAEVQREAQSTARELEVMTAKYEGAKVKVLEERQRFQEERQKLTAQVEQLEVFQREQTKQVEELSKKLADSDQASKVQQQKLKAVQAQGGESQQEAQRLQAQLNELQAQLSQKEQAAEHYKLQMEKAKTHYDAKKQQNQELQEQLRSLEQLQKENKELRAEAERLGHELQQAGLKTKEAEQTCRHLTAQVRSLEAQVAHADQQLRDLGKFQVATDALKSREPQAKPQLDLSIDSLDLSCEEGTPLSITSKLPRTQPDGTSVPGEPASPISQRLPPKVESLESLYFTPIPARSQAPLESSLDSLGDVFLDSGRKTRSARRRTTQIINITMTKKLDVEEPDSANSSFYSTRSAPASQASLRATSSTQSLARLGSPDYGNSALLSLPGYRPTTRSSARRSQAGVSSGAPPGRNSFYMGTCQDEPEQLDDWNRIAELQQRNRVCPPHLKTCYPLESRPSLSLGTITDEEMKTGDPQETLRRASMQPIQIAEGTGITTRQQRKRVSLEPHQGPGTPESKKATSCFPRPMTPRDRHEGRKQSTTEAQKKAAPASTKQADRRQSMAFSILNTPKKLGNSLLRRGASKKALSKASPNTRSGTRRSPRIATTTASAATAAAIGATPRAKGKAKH

The test addresses Ubiquitin Specific Peptidase 28 (human (endogenous in HCT116)) (UniProt Q96RU2). Kind of test: co-IP; anti-USP28 antibody on magnetic beads; lysates of HCT116 cells untreated, treated with DCD or with aphidicolin; overnight at 4 °C; washes with 500 mM NaCl, 0.5% Triton X-100; immunoblot for USP28 and NuMA1. A general note: Immunoblotting shows a protein as a band on a membrane.

No constants are given. Whether binding was seen depends on the method and setting. Binding seen in cells or lysates may run through a third protein. Some entries that bind do so weakly or less than the wild type.

Take “nuclear mitotic apparatus protein 1 (from UniProt Q14980 1-2115)”: the binding result is on record as “binds”.
